These are yes or no findings as the source states them, for the method shown. In cells and extracts the contact can be indirect. Here binding means that the protein was enriched with, or labelled near, the bait; the list need not be complete. Where a sequence is shown, tags or fusion partners need not be part of it.
Biological target: T1, FLAG-tagged NOD1 overexpressed in HEK293T cells (human) (UniProt Q9Y239)
T1 sequence: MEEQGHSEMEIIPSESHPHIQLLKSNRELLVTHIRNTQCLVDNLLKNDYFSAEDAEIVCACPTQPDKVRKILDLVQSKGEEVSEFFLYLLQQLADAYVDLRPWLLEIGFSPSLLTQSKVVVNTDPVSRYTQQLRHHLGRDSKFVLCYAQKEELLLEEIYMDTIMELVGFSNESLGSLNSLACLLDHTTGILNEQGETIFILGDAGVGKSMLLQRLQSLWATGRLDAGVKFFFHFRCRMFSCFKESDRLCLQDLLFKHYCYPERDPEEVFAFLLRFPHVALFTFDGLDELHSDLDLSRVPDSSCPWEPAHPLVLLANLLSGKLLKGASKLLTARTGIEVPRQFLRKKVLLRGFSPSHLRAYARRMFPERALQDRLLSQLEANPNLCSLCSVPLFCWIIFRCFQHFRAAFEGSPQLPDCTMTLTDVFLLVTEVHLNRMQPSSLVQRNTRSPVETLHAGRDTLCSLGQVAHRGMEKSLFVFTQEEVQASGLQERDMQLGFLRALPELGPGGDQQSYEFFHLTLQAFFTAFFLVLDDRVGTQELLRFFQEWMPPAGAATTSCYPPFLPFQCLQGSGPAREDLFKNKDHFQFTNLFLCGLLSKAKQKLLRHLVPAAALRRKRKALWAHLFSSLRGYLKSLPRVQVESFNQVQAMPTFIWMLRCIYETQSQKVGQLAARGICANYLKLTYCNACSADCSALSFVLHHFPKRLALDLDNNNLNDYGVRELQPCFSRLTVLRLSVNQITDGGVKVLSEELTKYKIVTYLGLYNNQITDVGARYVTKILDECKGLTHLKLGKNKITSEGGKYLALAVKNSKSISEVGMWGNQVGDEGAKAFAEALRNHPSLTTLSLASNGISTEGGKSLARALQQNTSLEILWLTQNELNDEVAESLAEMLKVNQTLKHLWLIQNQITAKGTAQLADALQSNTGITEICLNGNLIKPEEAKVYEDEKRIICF
Experiment: affinity purification with mass spectrometry; FLAG-tagged NOD1 or empty vector overexpressed in HEK293T, immunoprecipitation from whole cell lysates, LC/MS; cells pretreated with MG132 (10 umol/L, 2 h); two duplicates

B1: cyclin G-associated kinase (GAK), endogenous in HEK293T cells (enzyme, UniProt O14976 1-1311)
chain: MSLLQSALDFLAGPGSLGGASGRDQSDFVGQTVELGELRLRVRRVLAEGGFAFVYEAQDVGSGREYALKRLLSNEEEKNRAIIQEVCFMKKLSGHPNIVQFCSAASIGKEESDTGQAEFLLLTELCKGQLVEFLKKMESRGPLSCDTVLKIFYQTCRAVQHMHRQKPPIIHRDLKVENLLLSNQGTIKLCDFGSATTISHYPDYSWSAQRRALVEEEITRNTTPMYRTPEIIDLYSNFPIGEKQDIWALGCILYLLCFRQHPFEDGAKLRIVNGKYSIPPHDTQYTVFHSLIRAMLQVNPEERLSIAEVVHQLQEIAAARNVNPKSPITELLEQNGGYGSATLSRGPPPPVGPAGSGYSGGLALAEYDQPYGGFLDILRGGTERLFTNLKDTSSKVIQSVANYAKGDLDISYITSRIAVMSFPAEGVESALKNNIEDVRLFLDSKHPGHYAVYNLSPRTYRPSRFHNRVSECGWAARRAPHLHTLYNICRNMHAWLRQDHKNVCVVHCMDGRAASAVAVCSFLCFCRLFSTAEAAVYMFSMKRCPPGIWPSHKRYIEYMCDMVAEEPITPHSKPILVRAVVMTPVPLFSKQRSGCRPFCEVYVGDERVASTSQEYDKMRDFKIEDGKAVIPLGVTVQGDVLIVIYHARSTLGGRLQAKMASMKMFQIQFHTGFVPRNATTVKFAKYDLDACDIQEKYPDLFQVNLEVEVEPRDRPSREAPPWENSSMRGLNPKILFSSREEQQDILSKFGKPELPRQPGSTAQYDAGAGSPEAEPTDSDSPPSSSADASRFLHTLDWQEEKEAETGAENASSKESESALMEDRDESEVSDEGGSPISSEGQEPRADPEPPGLAAGLVQQDLVFEVETPAVLPEPVPQEDGVDLLGLHSEVGAGPAVPPQACKAPSSNTDLLSCLLGPPEAASQGPPEDLLSEDPLLLASPAPPLSVQSTPRGGPPAAADPFGPLLPSSGNNSQPCSNPDLFGEFLNSDSVTVPPSFPSAHSAPPPSCSADFLHLGDLPGEPSKMTASSSNPDLLGGWAAWTETAASAVAPTPATEGPLFSPGGQPAPCGSQASWTKSQNPDPFADLGDLSSGLQGSPAGFPPGGFIPKTATTPKGSSSWQTSRPPAQGASWPPQAKPPPKACTQPRPNYASNFSVIGAREERGVRAPSFAQKPKVSENDFEDLLSNQGFSSRSDKKGPKTIAEMRKQDLAKDTDPLKLKLLDWIEGKERNIRALLSTLHTVLWDGESRWTPVGMADLVAPEQVKKHYRRAVLAVHPDKAAGQPYEQHAKMIFMELNDAWSEFENQGSRPLF
With B1 the binding was “binds”.

Source: article PMC11131025
